Results deposited as PubChem BioAssay AID1508597 (Cure First, 2020)

Assay: 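Survival screen with siRNA in ovarian cancer cells derived from patients, with or without rucaparib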 (primary screen)
Cells: human ovarian carcinoma lines grown from tumours: OCI-P5x (papillary serous) and OCI-C5x (clear cell)
Reagents: siRNA pool against human genes, 1.25 pmol siRNA per well
Duration: 72 h or 96 h, depending on the cell culture
Challenge: rucaparib 20 µM (about IC30) or vehicle, present until read-out
Rucaparib or vehicle: Rucaparib
Cell line: OCI-C5x (clear cell)
Measurement: 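Luminescent ATP-based viability assay read 72 or 96 h after transfection, depending on culture, given as normalised percent viability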
Direction: viability, normalised: higher = more viable cells remaining
Call rule: 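Active when normalised viability falls below 80 percent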
Meaning of the calls: active = viability under 80%; inactive = viability 80% or more
This is an unselected part of the about 2,100 reagents, in one setting of the screen. 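Calls flag viability under 80% in either arm, not effects specific to rucaparib; the reference for percent is not stated.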 A number with no mark means an inactive call. Some reagents were tested in more than one well and are listed for each. No sequences are given here. Not given: the 100% reference.

PGK1, technical replicate 1 — viability, normalised (%) = 45.7 (active)
PGK1, technical replicate 2 — viability, normalised (%) = 48.9 (active)
PGK1, technical replicate 3 — viability, normalised (%) = 43.6 (active)
MEAF6, technical replicate 1 — viability, normalised (%) = 42.3 (active)
MEAF6, technical replicate 2 — viability, normalised (%) = 35 (active)
MEAF6, technical replicate 3 — viability, normalised (%) = 50.4 (active)
CDK11A, technical replicate 1 — viability, normalised (%) = 52.1 (active)
CDK11A, technical replicate 1 — viability, normalised (%) = 77.7 (active)
CDK11A, technical replicate 2 — viability, normalised (%) = 59.6 (active)
CDK11A, technical replicate 2 — viability, normalised (%) = 51.1 (active)
CDK11A, technical replicate 3 — viability, normalised (%) = 82.1
CDK11A, technical replicate 3 — viability, normalised (%) = 55.8 (active)
CLDN4, technical replicate 1 — viability, normalised (%) = 56.8 (active)
CLDN4, technical replicate 2 — viability, normalised (%) = 45.9 (active)
CLDN4, technical replicate 3 — viability, normalised (%) = 37.5 (active)
RBM14, technical replicate 1 — viability, normalised (%) = 45.8 (active)
RBM14, technical replicate 2 — viability, normalised (%) = 40.4 (active)
RBM14, technical replicate 3 — viability, normalised (%) = 56 (active)
ALKBH3, technical replicate 1 — viability, normalised (%) = 50.1 (active)
ALKBH3, technical replicate 2 — viability, normalised (%) = 41.3 (active)
ALKBH3, technical replicate 3 — viability, normalised (%) = 44 (active)

Individual results from the list:
For “viability, normalised (%)”, MEAF6, technical replicate 1 reads 42.3 (active)
For “viability, normalised (%)”, RBM14, technical replicate 2 reads 40.4 (active)
Entry for PGK1, technical replicate 2 in “viability, normalised (%)”: 48.9 (active)
For “viability, normalised (%)”, CLDN4, technical replicate 2 has 45.9 (active)

The results go on.
NANOG, technical replicate 1 — viability, normalised (%) = 50.8 (active)
NANOG, technical replicate 2 — viability, normalised (%) = 37.4 (active)
NANOG, technical replicate 3 — viability, normalised (%) = 55.1 (active)
RIC8A, technical replicate 1 — viability, normalised (%) = 31.9 (active)
RIC8A, technical replicate 2 — viability, normalised (%) = 33.7 (active)
RIC8A, technical replicate 3 — viability, normalised (%) = 27.7 (active)
ENY2, technical replicate 1 — viability, normalised (%) = 53.3 (active)
ENY2, technical replicate 2 — viability, normalised (%) = 41.7 (active)
ENY2, technical replicate 3 — viability, normalised (%) = 47.7 (active)
PRKCE, technical replicate 1 — viability, normalised (%) = 47.5 (active)
PRKCE, technical replicate 2 — viability, normalised (%) = 56.4 (active)
PRKCE, technical replicate 3 — viability, normalised (%) = 60.4 (active)
